The text below walks through data of US20200299251A1, “FURAN SKELETON-CONTAINING IMINOGUANIDINE DERIVATIVE AS WELL AS PREPARATION AND APPLICATION THEREOF” (SUN YAT-SEN UNIVERSITY, priority 2017, published 2020).

The series can be described thus: Release-absorption cycle experiment on carbon dioxide (conversion rate by absorbance at 368 nm).

The compound `N=C(N)N/N=C/c1ccc(/C=N/NC(=N)N)o1` [FuBIG] gave a conversion rate (after absorption-release cycle for ten times) of 92.49% and a conversion rate (first CO2 absorption, aqueous solution 0.4248M, stirred 1 h) of 99.36%.
